Data on five sequences can be found in US20090202990.

One data set has as its system thrombin. The experiment in a line: binding assay. To be noted: single-stranded DNA, letters built from the parent sequence and the stated change.
Data set [1] has as its target CRP (cAMP binding protein, catabolite activator protein) (UniProt P0ACJ8). Nature of the data set: SELEX. To be noted: five Spacer18 linkers to 3' signaling oligo on MIS10X3 [strand 1: five Spacer18 linkers between 38 and 39 (left out)]; cAMP required for binding; co-construct during selection; letters built from the parent sequence and the stated change.
The mark [2] stands for this setting: five Spacer18 linkers between signaling oligo and aptamer [5' fluorescein, (Spacer18)5 linker between 7 and 8 (left out)], FRET biosensor paired with THR27, 20 or 100 nM sensor, label: 5' fluorescein.

Construct, isoform or probe ends are uncertain for at least one entry.

“AGATGCGAGTCCGTGGTAGGGCAGGTTGGGGTGACT [THR21 (60-18 [29] aptamer construct)]”: in the data set with thrombin (five Spacer18 linkers [5' fluorescein at 1, five Spacer18 linkers between 7 and 8 (left out)], FRET comparison biosensor paired with THR27, label: 5' fluorescein), the binding result is reported as “binds”.

As to “AACGCAATAAATGTGAAGTAGATCACATTTTAGGCACCGATGGCT / GGTGCCTAAAATGTGATCTACTTCACATTTATTGCGTT [MIS10X3/MIS11 CRP site duplex]”, the selection result in data set [1] is recorded as “selected”.

As for “AGATGCGAGGTTGGGGGTACTAGGTATCAATGGGTAGGGTGGTGTAACGC [THR35]”, the binding result with thrombin (setting [2]) is on record as “binds”.

As to “GGTTGGTGTGGTTGGTCGCATCT [THR27 (G15D construct)]”, the binding result in the data set with thrombin (five Spacer18 linkers, C6 amino-dT [five Spacer18 linkers between 15 and 16 (left out), 16 = C6 amino-dT], FRET biosensor paired with THR35, THR36 or THR21, label: Texas Red) was “binds”.

For the sequence “AGATGCGAGTGAAGGTTGGGGGTACTAGGTATCAATGGGTAGGGTGGTGTAACGCCATAT [THR36]”, the binding result with thrombin (setting [2]) is “binds”.
